Laboratory results as given in the supplement of paper PMC10849652.
The other results are listed elsewhere or left out.

The chains behind the UniProt entries cited, without tags or fusion partners. Where a name states a change or a piece, a line headed by the entry shows the natural chain unless it says otherwise.
UniProt P62633: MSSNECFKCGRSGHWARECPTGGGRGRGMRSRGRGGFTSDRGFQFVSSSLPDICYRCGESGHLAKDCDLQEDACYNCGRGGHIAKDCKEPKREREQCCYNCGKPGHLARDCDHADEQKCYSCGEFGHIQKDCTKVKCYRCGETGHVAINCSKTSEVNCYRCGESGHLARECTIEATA
UniProt P51795: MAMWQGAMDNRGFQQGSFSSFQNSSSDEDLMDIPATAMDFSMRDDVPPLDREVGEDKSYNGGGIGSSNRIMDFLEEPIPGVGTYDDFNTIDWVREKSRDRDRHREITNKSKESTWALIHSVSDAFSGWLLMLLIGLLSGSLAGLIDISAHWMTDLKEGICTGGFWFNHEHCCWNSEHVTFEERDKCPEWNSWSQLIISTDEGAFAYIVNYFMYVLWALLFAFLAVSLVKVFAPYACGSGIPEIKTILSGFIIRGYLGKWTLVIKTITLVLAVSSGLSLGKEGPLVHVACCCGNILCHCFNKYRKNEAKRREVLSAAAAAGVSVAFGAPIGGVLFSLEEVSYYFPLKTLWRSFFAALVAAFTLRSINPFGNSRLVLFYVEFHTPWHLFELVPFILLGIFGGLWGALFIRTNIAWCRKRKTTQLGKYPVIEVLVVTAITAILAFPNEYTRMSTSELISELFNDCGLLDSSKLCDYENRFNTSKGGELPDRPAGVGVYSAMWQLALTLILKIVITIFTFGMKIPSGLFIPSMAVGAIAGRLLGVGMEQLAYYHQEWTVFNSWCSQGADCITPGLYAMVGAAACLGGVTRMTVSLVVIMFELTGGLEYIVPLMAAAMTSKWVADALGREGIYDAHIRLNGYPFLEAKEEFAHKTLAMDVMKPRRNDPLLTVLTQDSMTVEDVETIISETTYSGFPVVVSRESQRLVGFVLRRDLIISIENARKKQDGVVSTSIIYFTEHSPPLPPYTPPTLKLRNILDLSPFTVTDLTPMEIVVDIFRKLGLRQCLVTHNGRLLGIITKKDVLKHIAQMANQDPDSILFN
UniProt P56277: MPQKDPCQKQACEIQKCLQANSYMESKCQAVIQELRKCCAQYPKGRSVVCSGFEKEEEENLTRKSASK
UniProt Q9UDT6: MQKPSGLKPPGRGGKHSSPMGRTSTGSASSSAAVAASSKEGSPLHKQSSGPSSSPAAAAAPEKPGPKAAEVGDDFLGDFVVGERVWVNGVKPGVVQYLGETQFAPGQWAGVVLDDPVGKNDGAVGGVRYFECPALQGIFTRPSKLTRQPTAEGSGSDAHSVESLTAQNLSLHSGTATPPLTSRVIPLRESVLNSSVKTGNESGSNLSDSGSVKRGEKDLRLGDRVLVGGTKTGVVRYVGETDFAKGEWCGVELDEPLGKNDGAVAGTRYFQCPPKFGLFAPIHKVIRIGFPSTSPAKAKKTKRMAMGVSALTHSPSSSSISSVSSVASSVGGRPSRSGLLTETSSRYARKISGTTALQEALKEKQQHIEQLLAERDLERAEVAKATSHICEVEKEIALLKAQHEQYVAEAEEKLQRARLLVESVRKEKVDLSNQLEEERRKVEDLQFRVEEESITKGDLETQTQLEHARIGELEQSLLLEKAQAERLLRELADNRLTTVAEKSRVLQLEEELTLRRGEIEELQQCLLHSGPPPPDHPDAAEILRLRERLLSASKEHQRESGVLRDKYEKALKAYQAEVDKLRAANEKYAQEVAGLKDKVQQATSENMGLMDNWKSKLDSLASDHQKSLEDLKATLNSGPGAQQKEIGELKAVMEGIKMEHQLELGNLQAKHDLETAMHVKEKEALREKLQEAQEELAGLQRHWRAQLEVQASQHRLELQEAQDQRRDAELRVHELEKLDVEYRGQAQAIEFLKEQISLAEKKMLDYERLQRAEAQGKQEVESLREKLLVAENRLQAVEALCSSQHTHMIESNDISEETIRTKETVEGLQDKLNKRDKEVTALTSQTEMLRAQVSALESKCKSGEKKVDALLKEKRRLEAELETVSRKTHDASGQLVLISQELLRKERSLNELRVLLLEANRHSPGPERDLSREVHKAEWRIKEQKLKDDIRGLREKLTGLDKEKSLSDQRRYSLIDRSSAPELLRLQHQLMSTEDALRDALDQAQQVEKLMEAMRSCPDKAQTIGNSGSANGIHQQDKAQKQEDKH
UniProt Q8WUD6: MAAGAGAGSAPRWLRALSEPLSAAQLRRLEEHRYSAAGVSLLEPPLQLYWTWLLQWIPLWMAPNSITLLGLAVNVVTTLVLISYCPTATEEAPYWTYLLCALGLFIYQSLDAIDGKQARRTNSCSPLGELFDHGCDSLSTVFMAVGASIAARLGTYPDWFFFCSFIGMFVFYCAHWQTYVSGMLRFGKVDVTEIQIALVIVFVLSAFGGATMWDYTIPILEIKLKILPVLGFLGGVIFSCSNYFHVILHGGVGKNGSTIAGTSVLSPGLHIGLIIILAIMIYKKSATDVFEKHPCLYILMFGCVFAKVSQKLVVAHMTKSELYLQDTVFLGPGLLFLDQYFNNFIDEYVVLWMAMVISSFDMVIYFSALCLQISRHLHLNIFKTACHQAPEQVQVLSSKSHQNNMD
UniProt Q9UBR5: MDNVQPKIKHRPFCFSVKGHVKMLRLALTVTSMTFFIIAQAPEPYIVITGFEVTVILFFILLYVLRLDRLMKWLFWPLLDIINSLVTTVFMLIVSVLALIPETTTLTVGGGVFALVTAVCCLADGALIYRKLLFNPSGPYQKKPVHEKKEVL
UniProt Q8IZ52: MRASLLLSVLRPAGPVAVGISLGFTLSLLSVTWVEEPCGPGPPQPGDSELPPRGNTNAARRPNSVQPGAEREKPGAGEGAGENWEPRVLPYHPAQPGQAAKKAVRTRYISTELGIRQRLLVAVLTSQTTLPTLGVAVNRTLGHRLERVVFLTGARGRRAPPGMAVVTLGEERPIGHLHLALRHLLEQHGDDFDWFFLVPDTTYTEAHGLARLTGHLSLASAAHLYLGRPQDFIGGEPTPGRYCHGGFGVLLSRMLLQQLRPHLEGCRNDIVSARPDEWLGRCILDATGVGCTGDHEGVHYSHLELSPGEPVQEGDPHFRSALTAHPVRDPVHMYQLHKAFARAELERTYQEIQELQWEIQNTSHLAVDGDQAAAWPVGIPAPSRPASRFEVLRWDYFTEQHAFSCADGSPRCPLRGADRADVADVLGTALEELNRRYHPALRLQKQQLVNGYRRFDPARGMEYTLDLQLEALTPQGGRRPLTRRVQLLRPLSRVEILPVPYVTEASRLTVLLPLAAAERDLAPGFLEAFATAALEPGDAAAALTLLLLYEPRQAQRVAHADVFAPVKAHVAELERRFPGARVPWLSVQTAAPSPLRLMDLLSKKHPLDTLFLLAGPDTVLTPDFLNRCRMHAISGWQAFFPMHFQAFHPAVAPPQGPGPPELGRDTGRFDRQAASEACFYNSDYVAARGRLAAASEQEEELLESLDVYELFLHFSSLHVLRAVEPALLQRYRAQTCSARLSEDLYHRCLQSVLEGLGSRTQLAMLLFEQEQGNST
UniProt Q13286: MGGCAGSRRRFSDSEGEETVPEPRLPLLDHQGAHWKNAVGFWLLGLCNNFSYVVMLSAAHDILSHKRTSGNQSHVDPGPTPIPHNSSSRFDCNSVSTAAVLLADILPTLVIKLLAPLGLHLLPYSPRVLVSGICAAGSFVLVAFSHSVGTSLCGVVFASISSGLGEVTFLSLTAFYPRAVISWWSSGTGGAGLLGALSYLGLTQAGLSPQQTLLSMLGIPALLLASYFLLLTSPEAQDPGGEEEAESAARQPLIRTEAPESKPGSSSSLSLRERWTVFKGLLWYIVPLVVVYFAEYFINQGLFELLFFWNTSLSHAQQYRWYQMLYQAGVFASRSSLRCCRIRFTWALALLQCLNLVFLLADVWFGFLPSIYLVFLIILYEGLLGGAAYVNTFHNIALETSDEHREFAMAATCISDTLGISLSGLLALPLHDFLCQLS
UniProt Q8NCH0: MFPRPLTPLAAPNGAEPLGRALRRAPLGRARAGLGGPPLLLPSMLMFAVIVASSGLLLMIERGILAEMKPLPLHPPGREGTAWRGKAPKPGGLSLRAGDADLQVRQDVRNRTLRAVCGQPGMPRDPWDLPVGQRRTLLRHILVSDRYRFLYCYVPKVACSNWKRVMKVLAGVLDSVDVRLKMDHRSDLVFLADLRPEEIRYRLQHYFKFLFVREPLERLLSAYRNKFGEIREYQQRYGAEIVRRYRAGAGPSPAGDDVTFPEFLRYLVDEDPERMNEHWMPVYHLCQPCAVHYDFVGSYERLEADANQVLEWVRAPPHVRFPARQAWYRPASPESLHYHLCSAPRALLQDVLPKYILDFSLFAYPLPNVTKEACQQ
UniProt P49760, whole entry, looked up: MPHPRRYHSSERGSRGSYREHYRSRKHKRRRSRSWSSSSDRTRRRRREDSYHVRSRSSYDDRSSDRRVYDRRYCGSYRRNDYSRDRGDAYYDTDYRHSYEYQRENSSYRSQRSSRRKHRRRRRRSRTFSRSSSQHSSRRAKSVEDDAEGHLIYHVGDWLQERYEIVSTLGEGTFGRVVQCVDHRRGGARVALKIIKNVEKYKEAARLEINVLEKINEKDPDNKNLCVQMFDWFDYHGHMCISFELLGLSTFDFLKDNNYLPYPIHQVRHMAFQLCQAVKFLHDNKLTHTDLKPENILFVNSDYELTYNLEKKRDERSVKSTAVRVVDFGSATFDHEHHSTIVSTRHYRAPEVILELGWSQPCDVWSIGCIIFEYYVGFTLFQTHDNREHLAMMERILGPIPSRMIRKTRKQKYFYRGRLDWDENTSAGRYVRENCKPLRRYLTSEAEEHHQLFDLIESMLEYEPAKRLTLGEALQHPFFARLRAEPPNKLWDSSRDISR
UniProt Q8WVB6, whole entry, looked up: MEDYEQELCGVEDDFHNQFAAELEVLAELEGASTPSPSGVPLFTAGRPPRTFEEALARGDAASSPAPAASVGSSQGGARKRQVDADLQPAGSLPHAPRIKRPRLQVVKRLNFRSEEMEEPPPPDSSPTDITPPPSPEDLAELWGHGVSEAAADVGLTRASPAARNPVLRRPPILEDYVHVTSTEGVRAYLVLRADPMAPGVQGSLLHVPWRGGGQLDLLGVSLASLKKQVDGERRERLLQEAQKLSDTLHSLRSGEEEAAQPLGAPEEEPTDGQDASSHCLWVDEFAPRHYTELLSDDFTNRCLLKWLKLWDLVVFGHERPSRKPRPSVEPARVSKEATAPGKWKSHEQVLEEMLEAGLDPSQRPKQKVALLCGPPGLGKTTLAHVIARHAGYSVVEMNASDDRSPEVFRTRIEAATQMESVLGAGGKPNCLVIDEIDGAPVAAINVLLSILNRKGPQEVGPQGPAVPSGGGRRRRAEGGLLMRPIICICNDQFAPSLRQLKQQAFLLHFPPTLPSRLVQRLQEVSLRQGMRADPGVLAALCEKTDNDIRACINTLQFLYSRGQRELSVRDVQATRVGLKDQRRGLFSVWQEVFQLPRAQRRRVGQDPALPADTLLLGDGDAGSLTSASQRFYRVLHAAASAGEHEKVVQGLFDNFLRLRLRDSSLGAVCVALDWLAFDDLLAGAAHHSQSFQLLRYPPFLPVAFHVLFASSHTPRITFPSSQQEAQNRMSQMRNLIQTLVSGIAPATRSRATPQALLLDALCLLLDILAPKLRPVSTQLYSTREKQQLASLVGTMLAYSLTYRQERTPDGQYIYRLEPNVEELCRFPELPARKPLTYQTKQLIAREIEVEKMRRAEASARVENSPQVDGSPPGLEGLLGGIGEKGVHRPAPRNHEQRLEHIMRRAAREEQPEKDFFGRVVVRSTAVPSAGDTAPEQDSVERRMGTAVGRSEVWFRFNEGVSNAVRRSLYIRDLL
UniProt Q99967: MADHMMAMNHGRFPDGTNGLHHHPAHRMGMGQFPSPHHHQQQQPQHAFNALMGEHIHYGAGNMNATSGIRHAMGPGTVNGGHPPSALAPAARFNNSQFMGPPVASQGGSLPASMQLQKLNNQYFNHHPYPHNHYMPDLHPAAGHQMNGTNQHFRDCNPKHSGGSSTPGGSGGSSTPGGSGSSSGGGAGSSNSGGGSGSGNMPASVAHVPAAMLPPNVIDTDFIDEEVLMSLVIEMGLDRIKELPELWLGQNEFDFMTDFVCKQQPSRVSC
UniProt Q07065: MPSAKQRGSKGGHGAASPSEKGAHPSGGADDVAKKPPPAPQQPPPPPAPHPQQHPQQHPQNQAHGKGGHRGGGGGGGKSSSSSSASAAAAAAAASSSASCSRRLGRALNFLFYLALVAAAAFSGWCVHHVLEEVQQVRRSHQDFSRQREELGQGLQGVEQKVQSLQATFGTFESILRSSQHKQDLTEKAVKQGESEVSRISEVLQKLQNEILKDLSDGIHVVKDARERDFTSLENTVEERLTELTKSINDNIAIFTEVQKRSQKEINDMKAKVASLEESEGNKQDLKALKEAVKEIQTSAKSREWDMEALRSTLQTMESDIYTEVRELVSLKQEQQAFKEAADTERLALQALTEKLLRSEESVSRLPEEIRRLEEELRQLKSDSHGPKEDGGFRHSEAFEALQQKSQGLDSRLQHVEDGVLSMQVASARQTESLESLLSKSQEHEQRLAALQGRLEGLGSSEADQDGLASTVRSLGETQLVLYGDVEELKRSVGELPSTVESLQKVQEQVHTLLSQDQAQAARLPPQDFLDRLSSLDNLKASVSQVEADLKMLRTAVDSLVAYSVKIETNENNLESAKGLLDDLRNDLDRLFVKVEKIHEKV

Assays:
Experiment in all cases: log2 fold change, soluble protein after heating vs DMSO (PISA); higher = thermal stabilisation; K562 lysate, 10 uM; active = over 0.2 and 3.5 SD of the protein, either way, in both replicates (recomputed)
[1] = compound: CCCS(=O)(=O)Nc1ccc(F)c(C(=O)c2c[nH]c3ncc(Cl)cc23)c1F
Procedure, shortened: (§1)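 Following dounce homogenisation of K562 pellets in PBS pH 7.4 with 1 mM MgCl2, crude extract at 1 mg/mL protein was incubated for 30 min with 10 μM compound. Aliquots were then heated for 3 min over 48°C-58°C and pooled, NP-40 was added to 0.5% at 4°C, and soluble protein was recovered as the supernatant at 21,000xg for 90 min. Channel-sum-equalised TMTpro 16plex LC-MS/MS quantified this protein. Each value, from duplicates, is a log-two fold change in thermal stability relative to solvent controls.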

barasertib = compound: CCN(CCCOc1ccc2c(Nc3cc(CC(=O)Nc4cccc(F)c4)[nH]n3)ncnc2c1)CCOP(=O)(O)O [barasertib]
Procedure, shortened: as §1

volasertib = compound: CC[C@@H]1C(=O)N(C)c2cnc(Nc3ccc(C(=O)N[C@H]4CC[C@H](N5CCN(CC6CC6)CC5)CC4)cc3OC)nc2N1C(C)C [volasertib]
Procedure, shortened: as §1

[2] = compound: CNC(=O)C1=CC=CC=C1NC2=NC(=NC=C2Cl)NC3=C(C=C(C=C3)N4CCOCC4)OC
Procedure, shortened: as §1

[3] = compound: COc1cc2nc(-c3cc(F)ccc3O)nc(N[C@@H]3CNC[C@H]3C(C)(C)O)c2cc1OC
Procedure, shortened: as §1

[4] = compound: CCn1c(C(=O)N(C2CC2)C2CC2)cc2c3c(ncn3C)c(Nc3cc(C)n(C)n3)nc21
Procedure, shortened: as §1

saracatinib = compound: CN1CCN(CCOc2cc(OC3CCOCC3)c3c(Nc4c(Cl)ccc5c4OCO5)ncnc3c2)CC1 [saracatinib]
Procedure, shortened: as §1

sotrastaurin = compound: CN1CCN(c2nc(C3=C(c4c[nH]c5ccccc45)C(=O)NC3=O)c3ccccc3n2)CC1 [sotrastaurin]
Procedure, shortened: as §1

Tubastatin A = compound: CN1CCc2c(c3ccccc3n2Cc2ccc(C(=O)NO)cc2)C1 [Tubastatin A]
Procedure, shortened: as §1

[5] = compound: CNc1nc(-c2ccc3c(N)n[nH]c3c2)cc(N2C[C@@H](C(=O)NC3CCCCC3)CC[C@H]2C)n1
Procedure, shortened: as §1

alisertib = compound: COc1cc(Nc2ncc3c(n2)-c2ccc(Cl)cc2C(c2c(F)cccc2OC)=NC3)ccc1C(=O)O [alisertib]
Procedure, shortened: as §1

gefitinib = compound: COc1cc2ncnc(Nc3ccc(F)c(Cl)c3)c2cc1OCCCN1CCOCC1 [gefitinib]
Procedure, shortened: as §1

[6] = compound: CC[C@@H]1C(=O)N(C)c2cnc(Nc3ccc(C(=O)NC4CCN(C)CC4)cc3OC)nc2N1C1CCCC1
Procedure, shortened: as §1

[7] = compound: CCn1cc(-c2ccnc3[nH]c(-c4cccc(CN(C)C)c4)cc23)c(-c2ccc(NC(=O)N(C)C)cc2)n1
Procedure, shortened: as §1

[8] = compound: CN1CCC(CNc2ccc3ncc(-c4cccc(OC(F)(F)F)c4)n3n2)CC1
Procedure, shortened: as §1

alvocidib = compound: CN1CC[C@H](c2c(O)cc(O)c3c(=O)cc(-c4ccccc4Cl)oc23)[C@H](O)C1 [alvocidib]
Procedure, shortened: as §1

encorafenib = compound: COC(=O)N[C@@H](C)CNc1nccc(-c2cn(C(C)C)nc2-c2cc(Cl)cc(NS(C)(=O)=O)c2F)n1 [encorafenib]
Procedure, shortened: as §1

[9] = compound: COC(=O)[C@H](CCSC)NC(=O)C1=C(C=C(C=C1)NC[C@H](CS)N)C2=CC=CC=C2
Procedure, shortened: as §1

Measured: log2 fold change

CNBP (UniProt P62633)
inactive: [1] 0.168 | barasertib -0.006 | volasertib 0.098 | [2] 0.044 | [3] -0.07

CLSTN3 isoform 2 (UniProt Q9BQT9)
inactive: [1] 0.029 | volasertib 0.014 | [4] -0.158 | saracatinib 0.045 | sotrastaurin 0.086 | Tubastatin A 0.183 | [2] -0.058 | [5] 0.127 | alisertib 0.023 | [3] -0.014 | gefitinib 0.078

CLCN5 isoform 2 (UniProt P51795)
inactive: [1] -0.108 | volasertib 0.006 | [4] -0.094 | Tubastatin A 0.089 | [2] 0.034 | [3] 0.042

CMC4 (UniProt P56277)
inactive: [1] -0.003 | volasertib 0.014 | sotrastaurin 0.072 | [2] 0.029 | alisertib -0.063 | [3] -0.02 | gefitinib 0.341

CLIP2 (UniProt Q9UDT6)
inactive: [1] 0.089 | barasertib -0.017 | [6] 0.013 | volasertib 0.039 | [7] -0.184 | [8] -0.225 | saracatinib -0.135 | sotrastaurin 0.039 | alvocidib 0.145 | [2] 0.124 | [5] -0.068 | encorafenib 0.061 | [9] -0.053 | [3] 0.068

CHCHD5 (UniProt Q9BSY4)
inactive: [4] 0.176 | [7] 0 | [8] -0.124 | saracatinib 0.112 | sotrastaurin -0.019 | alvocidib 0.129 | Tubastatin A 0.014 | [2] 0.057 | [5] 0.08 | alisertib 0.046 | gefitinib -0.252

CLSTN1 (UniProt O94985)
inactive: [1] -0.104 | [6] 0.158 | volasertib -0.023 | [4] 0.348 | [7] -0.51 | [8] 0.051 | sotrastaurin -0.002 | alvocidib 0.086 | Tubastatin A -0.018 | encorafenib -0.042 | [9] -0.026 | alisertib 0.122 | [3] 0.157 | gefitinib -0.057

CHPT1 (UniProt Q8WUD6)
inactive: barasertib 0.083 | [4] 0.249 | [7] 0.393 | [8] -0.085 | alvocidib 0.297 | Tubastatin A 0.013

CHD4, A0A2R8Y521
inactive: [1] -0.315 | [6] -0.053 | volasertib 0.103 | [4] -0.342 | saracatinib 0.149 | Tubastatin A -0.117 | [5] 0.155 | encorafenib 0.046 | [9] -0.086 | alisertib 0.133 | [3] -0.454 | gefitinib 0.167

CKLF (UniProt Q9UBR5)
inactive: [1] -0.123 | volasertib -0.056 | [4] 0.161 | [7] 0.167 | [8] 0.034 | saracatinib 0.01 | sotrastaurin -0.268 | alvocidib -0.075 | Tubastatin A 0.225 | [5] -0.461 | [3] 0.018

CHPF (UniProt Q8IZ52)
inactive: barasertib 0.007 | [6] -0.047 | [4] 0.01 | [7] 0.061 | [8] 0.038 | saracatinib 0.169 | sotrastaurin -0.147 | alvocidib -0.008 | Tubastatin A 0.168 | [2] 0.075 | [5] -0.024 | encorafenib 0.02 | [9] 0.063

CLN3 (UniProt Q13286)
inactive: [1] -0.071 | barasertib -0.05 | volasertib -0.053 | [4] -0.035 | saracatinib 0.054 | Tubastatin A -0.091 | [2] 0.084 | [5] -0.053 | alisertib -0.004 | [3] -0.1 | gefitinib 0.218

CHST14 (UniProt Q8NCH0)
inactive: [7] -0.022 | [8] -0.014 | saracatinib -0.078 | sotrastaurin 0.074 | alvocidib 0.082 | [5] 0.148 | alisertib 0.069 | gefitinib 0

CIC (UniProt I3L1Q4)
inactive: barasertib -0.169

CLK2 (UniProt P49760)
inactive: [1] 0.286 | volasertib -0.231 | saracatinib -0.054 | sotrastaurin 0.156 | [5] 0.061 | [3] -0.214

CLDN7 (UniProt O95471)
inactive: [6] 0.036 | encorafenib 0.126 | [9] 0.057

CIR1 (UniProt Q86X95)
inactive: [1] 0.015 | [6] -0.005 | volasertib 0.016 | [4] -0.009 | saracatinib 0.172 | sotrastaurin 0.015 | Tubastatin A 0.178 | [5] 0.103 | encorafenib -0.006 | [9] -0.012 | [3] -0.01

CLDN12 (UniProt P56749)
inactive: [1] -0.076 | barasertib 0.044 | [6] 0.069 | volasertib 0.058 | [4] 0.067 | [7] 0.049 | [8] 0.081 | saracatinib 0.003 | sotrastaurin 0.024 | alvocidib -0.057 | Tubastatin A -0.116 | [2] -0.23 | [5] 0.063 | encorafenib 0.03 | [9] -0.224 | alisertib -0.055 | [3] -0.06 | gefitinib 0.069

CHST2 (UniProt Q9Y4C5)
inactive: [1] -0.029 | barasertib 0.122 | volasertib 0.097 | [7] -0.367 | [8] 0.078 | saracatinib 0.141 | sotrastaurin 0.089 | alvocidib -0.032 | [5] 0.089 | [3] -0.111

2 consecutive records from above:
CLCN5 isoform 2 (UniProt P51795)
inactive: [1] -0.108 | volasertib 0.006 | [4] -0.094 | Tubastatin A 0.089 | [2] 0.034 | [3] 0.042

CMC4 (UniProt P56277)
inactive: [1] -0.003 | volasertib 0.014 | sotrastaurin 0.072 | [2] 0.029 | alisertib -0.063 | [3] -0.02 | gefitinib 0.341

Carrying on:

CHMP2A (UniProt M0R1T5)
inactive: [7] -0.034 | [8] -0.198 | alvocidib 0.121

CHMP4A (UniProt H0YIN6)
inactive: [1] 0.049 | barasertib -0.012 | volasertib 0.024 | [4] -0.495 | [7] -0.274 | [8] 0.158 | saracatinib 0.201 | sotrastaurin -0.088 | alvocidib -0.197 | Tubastatin A 0.193 | [5] 0.528 | [3] 0.104

CHTF8 (UniProt P0CG13)
inactive: [1] 0.074 | barasertib 0.123 | [6] 0.068 | volasertib -0.104 | [4] 0.042 | [7] -0.096 | [8] -0.063 | saracatinib 0.062 | sotrastaurin -0.057 | alvocidib 0.159 | Tubastatin A -0.279 | [2] -0.181 | [5] -0.01 | encorafenib -0.058 | [9] -0.076 | alisertib -0.011 | [3] 0.019 | gefitinib -0.035

CHTF18 (UniProt Q8WVB6)
inactive: [1] -0.046 | [6] 0.162 | volasertib -0.228 | [4] 0.051 | saracatinib -0.018 | sotrastaurin 0.041 | Tubastatin A -0.214 | [2] 0.126 | [5] 0 | encorafenib 0.097 | [9] 0.039 | alisertib -0.03 | [3] 0.089 | gefitinib 0.001

CLU isoform 2 (UniProt P10909)
inactive: [7] 0.261 | [8] -0.039 | alvocidib -0.008

CITED2 (UniProt Q99967)
inactive: saracatinib 0.131 | [2] 0.046 | [5] -0.149

CHURC1-FNTB (UniProt B4DL54)
inactive: [6] -0.052 | [7] -0.346 | [8] 0.037 | sotrastaurin -0.223 | alvocidib -0.073 | encorafenib -0.002 | [9] -0.004

CKAP4 (UniProt Q07065)
inactive: [1] 0.049 | barasertib 0.03 | [6] -0.223 | volasertib 0.097 | [7] -0.142 | [8] -0.242 | saracatinib -0.01 | sotrastaurin -0.09 | alvocidib 0.33 | [5] -0.07 | encorafenib -0.209 | [9] 0.248 | [3] 0.018

CKMT2 (UniProt D6RHV3)
inactive: [1] -0.042 | volasertib 0.058 | [3] 0.088

CLCN2 (UniProt P51788)
inactive: [1] 0.075 | barasertib 0.01 | [6] -0.144 | volasertib -0.103 | [4] 0.045 | [7] -0.003 | [8] 0.068 | saracatinib 0.055 | sotrastaurin 0.049 | alvocidib -0.03 | Tubastatin A 0.14 | [2] -0.116 | [5] -0.194 | encorafenib 0.049 | [9] -0.055 | [3] 0.076
